Experimental data taken from PubChem BioAssay AID1487 (National Center for Advancing Translational Sciences (NCATS), 2009).
Screen size: about 200,000 compounds; about 25 (0.01%) were called active. The shares of active, inactive and inconclusive entries below differ from those in the screen. Calls follow the shape of the dose curve; as a rule, active = well fitted inhibition curve with a large enough effect in the signal ratio, with a control signal flat (not every such curve was filed as active); inconclusive = small, poorly fitted or top-dose-only effect, or effect the other way, or a change in a side signal; inactive = flat fitted curve, though single readings scatter; the % refers to the signal ratio. Potencies beside an inconclusive call are fits to weak or partial responses and may not hold up.
% is scaled to controls: 0 for no effect and ±100 for the full control effect; potency is read from the fitted curve at half-maximal effect.

Assay: qHTS Assay for Modulators of Lamin A Splicing
Conditions: HeLa LMNA splicing GFP/RFP minigene ratio, 48 h; ratio change, negative = inhibition: at 46.1 µM (top of the series) unless noted
Summary of the method: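 S3 HeLa stable clones carrying a lamin A-EGFP splicing minigene plus DsRed2 were seeded at 600 cells/well in Opti-MEM with 2% FBS, pin-dosed and incubated 48 h at 37°C. Acumen cytometry (488 nm) gave the GFP/RFP total-intensity ratio.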
In the case of `O=C(CCCC(=O)OCC1CCCO1)OCC1CCCO1` (configuration not stated), the Potency is reported as inconclusive: 5.01 µM [activator, partial curve, poor fit].
For `Cc1[nH]nc(SCC(=O)NCc2ccc(F)cc2)c1[N+](=O)[O-]`, the ratio change, negative = inhibition was inconclusive: -8.97%.
In the case of `O=C(COc1ncnc2ccccc12)Nc1cccc(S(=O)(=O)N2CCOCC2)c1`, the “ratio change, negative = inhibition” value is reported as inactive: -2.19%.
With `CCCCCNC(=O)C1CCC(Cn2c(=O)c3sccc3n(CC)c2=O)CC1` (configuration not stated) the ratio change, negative = inhibition was inconclusive: 3.72% [at 46 µM].
With `CC(=O)NC1=NN(c2ccccc2)C(=O)C1` the “ratio change, negative = inhibition” value was inactive: -1.23%.
In the case of `O=C(CC1C(=O)NCCN1Cc1ccoc1)NCCc1ccc(Cl)cc1` (configuration not stated), the ratio change, negative = inhibition is reported as inconclusive: 17.5% [at 46 µM].
In the case of `CCC(CC)C(=O)N1CCc2cc(OC)c(OC)cc2C1COc1ccc(F)cc1` (configuration not stated), the ratio change, negative = inhibition is reported as inconclusive: -20.4% [at 46 µM].
With `O=C(CSc1nnc(-c2cccnc2)o1)OC1CCCCC1` the “ratio change, negative = inhibition” value was inactive: 0.153%.
In the case of `CC(C)NC(=O)c1onc(CSc2cccc(Cl)c2)c1C(=O)O`, the Potency is reported as inconclusive: 1.26 µM [inhibitor, single point].
In the case of `COc1ccc(-c2nc3cc(NC(=O)COc4ccc(F)cc4)ccc3o2)cc1`, the ratio change, negative = inhibition is reported as inconclusive: 19.4% [at 46 µM].
For `Cc1ccc(NC(=S)/C(=C(\[O-])c2ccc(F)cc2)[n+]2ccccc2)cc1`, the ratio change, negative = inhibition was inactive: 0.509% [at 9.22 µM].
For `O=C(O)CCc1ccc(-c2ccc(F)cc2)n1CC1CCCO1` (configuration not stated), the “ratio change, negative = inhibition” value was inactive: -2.77%.
In the case of `COc1ccc(S(=O)(=O)NCCc2sc(-c3ccccc3)nc2C)cc1OC`, the “ratio change, negative = inhibition” value is reported as inactive: -17.5% [at 46 µM].
In the case of `Cc1ccc(C(=O)N2c3nc(-c4ccco4)nn3C3(CCCCC3)[C@@H]3CCCC[C@@H]32)cc1`, the ratio change, negative = inhibition is reported as inconclusive: 20.5% [at 46 µM].
In the case of `COc1ccc(C(=O)NCCc2cc3ccc(C)c(C)c3[nH]c2=O)cc1OC`, the ratio change, negative = inhibition is reported as inactive: 20.2% [at 9.22 µM].
In the case of `COC/C=C/C1=CC2=CC(=O)C(C)(OC(=O)c3cnc4ccccc4n3)C(=O)C2=CN1Cc1ccccc1` (configuration not stated), the ratio change, negative = inhibition is reported as inconclusive: 10% [at 9.22 µM].
With `COc1ccc(-c2nnc3ccc(SCC(=O)NCc4ccco4)nn23)cc1` the “ratio change, negative = inhibition” value was inactive: -1.21%.
With `Oc1cccc(C(O)CNCc2ccc(OCc3ccc(Cl)cc3Cl)cc2)c1` (configuration not stated) the ratio change, negative = inhibition was inconclusive: -36.5% [at 46 µM].
With `CCCCCCNS(=O)(=O)c1ccc(NC(=O)C2CCCO2)cc1` (configuration not stated) the ratio change, negative = inhibition was inconclusive: -49.4%.
For `COC(=O)c1ccc(OCC2c3cc(OC)c(OC)cc3CCN2C(=O)c2cccc(C)c2)cc1` (configuration not stated), the ratio change, negative = inhibition was inconclusive: -26.8% [at 46 µM].
In the case of `Cc1ccc(CNC(=O)CCNS(=O)(=O)c2ccc(C)cc2)cc1`, the “ratio change, negative = inhibition” value is reported as inactive: 13.4%.
For `CCn1c(CNc2cccc(C(F)(F)F)c2)n[nH]c1=S`, the ratio change, negative = inhibition was inconclusive: 1.27% [at 46 µM].
With `CCNC(=S)NNC(=O)c1cc(-c2cccnc2)nc2ccccc12` the ratio change, negative = inhibition was inconclusive: -4.51% [at 46 µM].
In the case of `O=C(COC(=O)C12CC3CC(CC(C3)C1)C2)Nc1ncc(Cl)cc1Cl`, the “ratio change, negative = inhibition” value is reported as inactive: -1.25%.
For `CCOC(=O)CSc1nnc(-c2ccco2)n1-c1ccccc1`, the “ratio change, negative = inhibition” value was inactive: -3.36%.
For `Cc1ccnc(NC(=O)c2sc3ccccc3c2Cl)c1`, the ratio change, negative = inhibition was inconclusive: 9.36%.
With `CCCCCCCCc1nnc(NC(=O)c2ccco2)s1` the “ratio change, negative = inhibition” value was inactive: -6.77%.
For `O=C(CSc1nnc2[nH]c(=O)cc(-c3ccccc3)n12)Nc1ccc(F)cc1F`, the “ratio change, negative = inhibition” value was inactive: 17.6% [at 46 µM].
In the case of `CCOc1ccc(CN(C)CC(=O)Nc2cc(C)c(C)cc2[N+](=O)[O-])cc1`, the ratio change, negative = inhibition is reported as inconclusive: -27.3% [at 46 µM].
In the case of `O=[N+]([O-])c1cc(Br)c(O)c(/C=N/Nc2nc3ccccc3s2)c1`, the ratio change, negative = inhibition is reported as inconclusive: -43% [at 46 µM].
In the case of `CC1CCN(c2nc3ccc(C(=O)N4CCN(Cc5ccc6c(c5)OCO6)CC4)cc3s2)CC1`, the “ratio change, negative = inhibition” value is reported as inactive: -0.401%.
In the case of `Cc1ccc(C)c(CN2CCC(CNC(=O)c3cc4ccc5cccnc5c4[nH]3)CC2)c1`, the ratio change, negative = inhibition is reported as inconclusive: -1.35% [at 46 µM].
For `O=C(Nc1nccs1)c1ccc(Cl)c(S(=O)(=O)N2CCCCC2)c1`, the Potency was inconclusive: 14.1 µM [fluorescent, single point].
In the case of `COc1ccc(NCc2n[nH]nc2-c2ccccc2)cc1Cl`, the ratio change, negative = inhibition is reported as inconclusive: 7.25%.
In the case of `O=C(c1cccnc1)N1CCN(S(=O)(=O)c2ccc3ccccc3c2)CC1`, the ratio change, negative = inhibition is reported as inconclusive: -32.6%.
For `COc1cccc2sc(N(CCN(C)C)C(=O)/C=C/c3cccs3)nc12`, the ratio change, negative = inhibition was inconclusive: 12.2% [at 9.22 µM].
With `Cn1ncc(C(=O)N2CCN(c3ccc(F)cc3)CC2)c1C1CCN(C(=O)OC(C)(C)C)CC1` the “ratio change, negative = inhibition” value was inactive: 11% [at 46 µM].
In the case of `O=c1c(O)c(-c2ccccc2)oc2cc(O)ccc12`, the ratio change, negative = inhibition is reported as inconclusive: -19.1%.
For `CCOC(=O)C1=C(C)Nc2ccccc2N=C1NC(=O)c1cccc(S(=O)(=O)N(C)C)c1`, the “ratio change, negative = inhibition” value was inactive: -7.71%.
With `Cc1cc(N=Cc2c(O)n(-c3cccc(C(F)(F)F)c3)c(=O)c3ccccc23)no1` the “ratio change, negative = inhibition” value was inactive: 3.8%.
For `CCOc1ccc(-n2c(SCC(=O)Nc3ccc(F)cc3)nc3c([nH]c4ccccc43)c2=O)cc1`, the “ratio change, negative = inhibition” value was inactive: 11.2% [at 46 µM].
For `CCOc1ccc(C2C(=O)N(C3CCCCC3)CC(=O)N2C2CCCC2)cc1OC` (configuration not stated), the “ratio change, negative = inhibition” value was inactive: -0.249% [at 46 µM].
With `Cc1ccc2c(c1)N(C(=O)N1CCC(C(=O)NC3CCCCCC3)CC1)CC(C)O2` (configuration not stated) the “ratio change, negative = inhibition” value was inactive: -0.842% [at 46 µM].
In the case of `Cc1ccc(-n2ncc3c(N4CCN(C)CC4)ncnc32)cc1Cl`, the Potency is reported as inconclusive: 35.5 µM [inhibitor, partial curve, poor fit].
In the case of `COC(=O)c1c(NC(=O)c2cccs2)sc2c1CCC(C)C2` (configuration not stated), the ratio change, negative = inhibition is reported as inconclusive: 4.14%.
For `Cc1c(C(=O)N/N=C/c2ccc(Cl)cc2)[nH]c2ccc(Cl)cc12`, the Potency was inconclusive: 0.708 µM [falling, full curve].
With `CCOC(=O)C1=C(C)NC(C)=C(C(=O)OCC)C1C(=O)OCC(=O)c1ccc2c(c1)OCCO2` the ratio change, negative = inhibition was inconclusive: 17.4%.
For `COc1ccc(C2CNC(=O)C2)cc1OC1CCCC1` (configuration not stated), the ratio change, negative = inhibition was inconclusive: -8.14%.
In the case of `C=CCn1c(SCc2nc3sc(C(=O)O)c(C)c3c(=O)[nH]2)nnc1-c1ccccc1`, the “ratio change, negative = inhibition” value is reported as inactive: 4.29% [at 46 µM].
In the case of `O=C(/C=C\c1ccccc1)Nc1ccc(NC(=O)c2ccco2)cc1`, the ratio change, negative = inhibition is reported as inconclusive: -36.2% [at 46 µM].
With `CC(C)CCn1cnc2c(sc3nc4c(cc32)CSC(C)(C)C4)c1=O` the “ratio change, negative = inhibition” value was inactive: -9.96%.
For `CCOc1ccccc1N1CCN(Cc2ccc(Br)s2)CC1`, the ratio change, negative = inhibition was inconclusive: -34.5%.
In the case of `COc1ccc(C(CCNCc2ccc(N(C)C)cc2)C(C)C)cc1` (configuration not stated), the ratio change, negative = inhibition is reported as inconclusive: -17.9% [at 46 µM].
For `Cc1ccc(S(=O)(=O)c2cn(C)c3cc(N4CCCC(C)C4)c(F)cc3c2=O)c(C)c1` (configuration not stated), the “ratio change, negative = inhibition” value was inactive: -9.37% [at 46 µM].
For `Cc1cc(C=O)c(C)n1-c1cccc(C(=O)O)c1`, the ratio change, negative = inhibition was inconclusive: 18.5% [at 46 µM].
For `O=C(O)c1cc([N+](=O)[O-])ccc1NCc1ccccc1`, the ratio change, negative = inhibition was inconclusive: -12.5% [at 46 µM].
With `CC(C)OCCCNc1ncnc2c1[nH]c1ccccc12` the Potency was inconclusive: 5.01 µM [fluorescent, full curve].
With `Cn1c(=O)c2c(ncn2CC(=O)Nc2ccccc2Sc2ccccc2)n(C)c1=O` the ratio change, negative = inhibition was inconclusive: 0.584%.
For `O=C(c1ccc(=O)[nH]n1)N1CCN(S(=O)(=O)c2ccc3ccccc3c2)CC1`, the ratio change, negative = inhibition was inconclusive: -0.607% [at 9.22 µM].
In the case of `CCCc1ccc(-c2cc(NC(=O)CSc3nnc(N)s3)n(-c3ccccc3)n2)cc1`, the ratio change, negative = inhibition is reported as inconclusive: -21.7%.
With `COc1ccc(N=C2CC(C)(C)CC(=O)/C2=C(/O)c2ccccc2)cc1` the ratio change, negative = inhibition was inconclusive: -16.6% [at 46 µM].
For `COc1ccc(N=C2C(=Nc3ccc(OC)cc3)N(c3ccccc3)C(=S)N2C(=O)c2ccc(Cl)cc2)cc1`, the “ratio change, negative = inhibition” value was inactive: -11.5%.
With `Cn1c(=O)cc(OCCCC(=O)N2CCN(Cc3ccc4c(c3)OCO4)CC2)c2ccccc21` the Potency was inconclusive: 12.6 µM [activator, partial curve].
With `Cc1ccc(C(=O)N/C(=C\c2ccc(F)cc2)C(=O)NCc2ccncc2)cc1` the “ratio change, negative = inhibition” value was inactive: -7.7%.
With `S=C(Nc1ccccc1)N1CCCCCCC1` the “ratio change, negative = inhibition” value was inactive: -7.28% [at 46 µM].
In the case of `O=C(COC(=O)CCc1ccc(S(=O)(=O)N2CCOCC2)cc1)Nc1ccc(Cl)cn1`, the ratio change, negative = inhibition is reported as inconclusive: 23.5% [at 46 µM].
In the case of `COC(=O)c1ccccc1NC(=O)CSc1nnc(COc2cccc(OC)c2)n1C`, the ratio change, negative = inhibition is reported as inconclusive: 19.5%.
With `COc1ccc(-c2cn3cccnc3n2)cc1NC(=O)c1cc(C)cc(C)c1` the ratio change, negative = inhibition was inconclusive: -26.5% [at 46 µM].
In the case of `CCCC(=O)NC(=S)Nc1cccc(Cl)c1N1CCCC1`, the ratio change, negative = inhibition is reported as inconclusive: 19.2% [at 46 µM].
In the case of `COC(=O)c1cc(NC(=O)Cn2nc(-c3ccc(C)c(C)c3)ccc2=O)cc(C(=O)OC)c1`, the ratio change, negative = inhibition is reported as inconclusive: -16.8% [at 46 µM].
With `O=C(CSc1nnc(-c2ccc([N+](=O)[O-])cc2)o1)Nc1ccccc1` the “ratio change, negative = inhibition” value was inactive: -0.626% [at 46 µM].
With `C/C(=N\NC(=O)CSc1nc2nc(C)cc(C)n2n1)c1ccccc1` the ratio change, negative = inhibition was inconclusive: 3.94%.
With `CC1COC2C(O1)N(S(C)(=O)=O)CCN2S(C)(=O)=O` (configuration not stated) the ratio change, negative = inhibition was inconclusive: 10.2%.
With `Cc1sc(NC(=O)C2CCCO2)c(C#N)c1C` (configuration not stated) the “ratio change, negative = inhibition” value was inactive: 12.4%.
With `c1ccc2c(c1)nnn1c3ccccc3nc21` the Potency was inconclusive: 35.5 µM [fluorescent, single point].
In the case of `CCCCC(=O)NC(=S)NNC(=O)c1ccc(OC)cc1`, the ratio change, negative = inhibition is reported as inconclusive: -33% [at 46 µM].
With `O=c1oc2ccccc2c(O)c1/C=C1\C=Nc2ccccc21` the “ratio change, negative = inhibition” value was inactive: -0.145%.
With `COC(=O)COc1ccc(S(=O)(=O)Nc2cc(OC)ccc2OC)cc1` the “ratio change, negative = inhibition” value was inactive: 7.37%.
With `COc1ccc(C(=O)OCC(N)=O)cc1[N+](=O)[O-]` the “ratio change, negative = inhibition” value was inactive: -6.24%.
For `COc1ccc(NC(=O)C(Cl)=C(Cl)Cl)cn1`, the Potency was inconclusive: 35.5 µM [rising, single point].
In the case of `Cn1c(=O)c2c(nc(CN3CCN(c4ccccc4)CC3)n2Cc2ccccc2F)n(C)c1=O`, the ratio change, negative = inhibition is reported as inconclusive: 8.48%.
For `COc1ccc(-n2ncc(C(=O)Nc3cccc(C(F)(F)F)c3)c2C2CCN(C(=O)OC(C)(C)C)CC2)cc1`, the “ratio change, negative = inhibition” value was inactive: 18.3% [at 46 µM].
